# From US20120058948A1, “Collagen peptides as immune modulators” (priority 2006, published 2012)
# Some entries share one result that the patent states for a list of compounds.
# Tested on: human peripheral blood monocytes (HPBMs)
# Experiment: IL-1β production (ELISA) from HPBMs incubated with peptide alone
# Format: cell-based
# Settings: peptide 10^−7 M, no LPS, sampled every four hours for 28 hours, FIG. 2
sequence,measurement,value
"POGPOGPOGITGARGLAGPOGPOGPOGPOG [peptide p2, models an imino-poor, conformationally flexible region of type III collagen adjacent to the MMP-1 cleavage site, flanked by POG triplets]",effect on IL-1β production when incubated with HPBMs alone,no significant affect
